These are yes or no findings as the source states them, for the method shown. In cells and extracts the contact can be indirect. Some entries that bind do so weakly or less than the wild type.

The chains behind the UniProt entries cited, without tags or fusion partners.
UniProt Q9UKV8: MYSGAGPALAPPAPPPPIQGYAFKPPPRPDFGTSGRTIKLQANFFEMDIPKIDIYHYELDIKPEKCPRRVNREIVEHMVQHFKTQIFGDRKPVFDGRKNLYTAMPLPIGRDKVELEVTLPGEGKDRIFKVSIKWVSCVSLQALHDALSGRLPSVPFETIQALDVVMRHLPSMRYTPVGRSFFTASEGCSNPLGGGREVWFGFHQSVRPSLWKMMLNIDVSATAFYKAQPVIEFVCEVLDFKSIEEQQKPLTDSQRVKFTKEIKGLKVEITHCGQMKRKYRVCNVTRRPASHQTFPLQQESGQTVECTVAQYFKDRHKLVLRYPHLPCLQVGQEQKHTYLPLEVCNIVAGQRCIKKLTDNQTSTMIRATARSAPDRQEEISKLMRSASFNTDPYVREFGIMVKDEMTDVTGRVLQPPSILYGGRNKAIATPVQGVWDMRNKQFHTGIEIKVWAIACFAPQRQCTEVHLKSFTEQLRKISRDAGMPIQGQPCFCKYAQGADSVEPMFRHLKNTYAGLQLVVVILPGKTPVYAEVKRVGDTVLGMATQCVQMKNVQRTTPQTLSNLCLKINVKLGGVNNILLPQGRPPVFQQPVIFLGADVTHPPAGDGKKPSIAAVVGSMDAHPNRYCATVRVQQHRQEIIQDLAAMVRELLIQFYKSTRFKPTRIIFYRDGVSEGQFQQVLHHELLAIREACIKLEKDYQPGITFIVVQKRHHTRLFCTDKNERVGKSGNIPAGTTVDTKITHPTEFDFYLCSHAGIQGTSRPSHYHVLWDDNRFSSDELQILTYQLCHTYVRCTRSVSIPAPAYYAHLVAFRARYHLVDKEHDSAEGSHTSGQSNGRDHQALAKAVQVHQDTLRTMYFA

This note sets out measurements from article PMC11381323.

Experiment [1] has as its target Argonaute 2 (AGO2) (human (endogenous in A375, SHSY5Y and HeLa)) (UniProt Q9UKV8). Description: co-IP; co-immunoprecipitation of endogenous AGO2 and FAM120A, immunoblots; A375 and SHSY5Y Lamin A KO cells (Figure 5E, F).
For experiment [2] the target is unchanged. Nature of the experiment: condition: only in WT cells (Lamin A not knocked out); co-IP; co-immunoprecipitation of endogenous AGO2 and FAM120A, immunoblots; A375 and SHSY5Y WT cells (Figure 5E, F).
For experiment [3] the target is unchanged. Description: co-IP; AGO1-4 immunoprecipitation with Flag-tagged T6B peptide from cytoplasmic and nuclear lysates of A375 and SHSY5Y Lamin A KO cells; immunoblots of AGO2 and FAM120A (Figure 5K, L). Background: A western blot detects proteins with antibodies after separation by electrophoresis.

B1: Constitutive coactivator of PPAR-gamma-like protein 1, FAM120A (protein, UniProt Q9NZB2 1-1118)
chain: MGVQGFQDYIEKHCPSAVVPVELQKLARGSLVGGGRQRPPQTPLRLLVDADNCLHRLYGGFYTDWVSGGQWNHMLGYLAALAKACFGGNIELFVFFNGALEKARLHEWVKRQGNERQTAQQIVSHVQNKGTPPPKVWFLPPVCMAHCIRLALIRFHVKVAQSIEDHHQEVIGFCRENGFHGLVAYDSDYALCNIPYYFSAHALKLSRNGKSLTTSQYLMHEVAKQLDLNPNRFPIFAALLGNHILPDEDLASFHWSLLGPEHPLASLKVRAHQLVLPPCDVVIKAVADYVRNIQDTSDLDAIAKDVFQHSQSRTDDKVIRFKRAIGYYSATSKPMSFHPPHYLAARPGPFGMPGMVPPHVPPQMLNIPQTSLQAKPVAPQVPSPGGAPGQGPYPYSLSEPAPLTLDTSGKNLTEQNSYSNIPHEGKHTPLYERSSPINPAQSGSPNHVDSAYFPGSSTSSSSDNDEGSGGATNHISGNKIGWEKTGSHSEPQARGDPGDQTKAEGSSTASSGSQLAEGKGSQMGTVQPIPCLLSMPTRNHMDITTPPLPPVAPEVLRVAEHRHKKGLMYPYIFHVLTKGEIKIAVSIEDEANKDLPPAALLYRPVRQYVYGVLFSLAESRKKTERLAFRKNRLPPEFSPVIIKEWAAYKGKSPQTPELVEALAFREWTCPNLKRLWLGKAVEDKNRRMRAFLACMRSDTPAMLNPANVPTHLMVLCCVLRYMVQWPGARILRRQELDAFLAQALSPKLYEPDQLQELKIENLDPRGIQLSALFMSGVDMALFANDACGQPIPWEHCCPWMYFDGKLFQSKLLKASREKTPLIDLCDGQADQAAKVEKMRQSVLEGLSFSRQSHTLPFPPPPALPFYPASAYPRHFGPVPPSQGRGRGFAGVCGFGGPYGETVATGPYRAFRVAAASGHCGAFSGSDSSRTSKSQGGVQPIPSQGGKLEIAGTVVGHWAGSRRGRGGRGPFPLQVVSVGGPARGRPRGVISTPVIRTFGRGGRYYGRGYKNQAAIQGRPPYAASAEEVAKELKSKSGESKSSAMSSDGSLAENGVMAEEKPAPQMNGSTGDARAPSHSESALNNDSKTCNTNPHLNALSTDSACRREAALEAAVLNKEE
On to B1, for which the binding result in experiment [1] was “binds”; in experiment [2] it was “no binding”; in experiment [3] it was “binds”.
